Assay results published in article doi:10.1101/2024.03.04.582938.
No constants are given. Whether binding was seen depends on the method and setting. In cells and extracts the contact can be indirect. Here binding means that the protein was enriched with, or labelled near, the bait; the list need not be complete.

Protein sequences, listed by entry. Tags and fused reporters are not part of them. Residues count along the entry.
UniProt P98161, residues 24-4303: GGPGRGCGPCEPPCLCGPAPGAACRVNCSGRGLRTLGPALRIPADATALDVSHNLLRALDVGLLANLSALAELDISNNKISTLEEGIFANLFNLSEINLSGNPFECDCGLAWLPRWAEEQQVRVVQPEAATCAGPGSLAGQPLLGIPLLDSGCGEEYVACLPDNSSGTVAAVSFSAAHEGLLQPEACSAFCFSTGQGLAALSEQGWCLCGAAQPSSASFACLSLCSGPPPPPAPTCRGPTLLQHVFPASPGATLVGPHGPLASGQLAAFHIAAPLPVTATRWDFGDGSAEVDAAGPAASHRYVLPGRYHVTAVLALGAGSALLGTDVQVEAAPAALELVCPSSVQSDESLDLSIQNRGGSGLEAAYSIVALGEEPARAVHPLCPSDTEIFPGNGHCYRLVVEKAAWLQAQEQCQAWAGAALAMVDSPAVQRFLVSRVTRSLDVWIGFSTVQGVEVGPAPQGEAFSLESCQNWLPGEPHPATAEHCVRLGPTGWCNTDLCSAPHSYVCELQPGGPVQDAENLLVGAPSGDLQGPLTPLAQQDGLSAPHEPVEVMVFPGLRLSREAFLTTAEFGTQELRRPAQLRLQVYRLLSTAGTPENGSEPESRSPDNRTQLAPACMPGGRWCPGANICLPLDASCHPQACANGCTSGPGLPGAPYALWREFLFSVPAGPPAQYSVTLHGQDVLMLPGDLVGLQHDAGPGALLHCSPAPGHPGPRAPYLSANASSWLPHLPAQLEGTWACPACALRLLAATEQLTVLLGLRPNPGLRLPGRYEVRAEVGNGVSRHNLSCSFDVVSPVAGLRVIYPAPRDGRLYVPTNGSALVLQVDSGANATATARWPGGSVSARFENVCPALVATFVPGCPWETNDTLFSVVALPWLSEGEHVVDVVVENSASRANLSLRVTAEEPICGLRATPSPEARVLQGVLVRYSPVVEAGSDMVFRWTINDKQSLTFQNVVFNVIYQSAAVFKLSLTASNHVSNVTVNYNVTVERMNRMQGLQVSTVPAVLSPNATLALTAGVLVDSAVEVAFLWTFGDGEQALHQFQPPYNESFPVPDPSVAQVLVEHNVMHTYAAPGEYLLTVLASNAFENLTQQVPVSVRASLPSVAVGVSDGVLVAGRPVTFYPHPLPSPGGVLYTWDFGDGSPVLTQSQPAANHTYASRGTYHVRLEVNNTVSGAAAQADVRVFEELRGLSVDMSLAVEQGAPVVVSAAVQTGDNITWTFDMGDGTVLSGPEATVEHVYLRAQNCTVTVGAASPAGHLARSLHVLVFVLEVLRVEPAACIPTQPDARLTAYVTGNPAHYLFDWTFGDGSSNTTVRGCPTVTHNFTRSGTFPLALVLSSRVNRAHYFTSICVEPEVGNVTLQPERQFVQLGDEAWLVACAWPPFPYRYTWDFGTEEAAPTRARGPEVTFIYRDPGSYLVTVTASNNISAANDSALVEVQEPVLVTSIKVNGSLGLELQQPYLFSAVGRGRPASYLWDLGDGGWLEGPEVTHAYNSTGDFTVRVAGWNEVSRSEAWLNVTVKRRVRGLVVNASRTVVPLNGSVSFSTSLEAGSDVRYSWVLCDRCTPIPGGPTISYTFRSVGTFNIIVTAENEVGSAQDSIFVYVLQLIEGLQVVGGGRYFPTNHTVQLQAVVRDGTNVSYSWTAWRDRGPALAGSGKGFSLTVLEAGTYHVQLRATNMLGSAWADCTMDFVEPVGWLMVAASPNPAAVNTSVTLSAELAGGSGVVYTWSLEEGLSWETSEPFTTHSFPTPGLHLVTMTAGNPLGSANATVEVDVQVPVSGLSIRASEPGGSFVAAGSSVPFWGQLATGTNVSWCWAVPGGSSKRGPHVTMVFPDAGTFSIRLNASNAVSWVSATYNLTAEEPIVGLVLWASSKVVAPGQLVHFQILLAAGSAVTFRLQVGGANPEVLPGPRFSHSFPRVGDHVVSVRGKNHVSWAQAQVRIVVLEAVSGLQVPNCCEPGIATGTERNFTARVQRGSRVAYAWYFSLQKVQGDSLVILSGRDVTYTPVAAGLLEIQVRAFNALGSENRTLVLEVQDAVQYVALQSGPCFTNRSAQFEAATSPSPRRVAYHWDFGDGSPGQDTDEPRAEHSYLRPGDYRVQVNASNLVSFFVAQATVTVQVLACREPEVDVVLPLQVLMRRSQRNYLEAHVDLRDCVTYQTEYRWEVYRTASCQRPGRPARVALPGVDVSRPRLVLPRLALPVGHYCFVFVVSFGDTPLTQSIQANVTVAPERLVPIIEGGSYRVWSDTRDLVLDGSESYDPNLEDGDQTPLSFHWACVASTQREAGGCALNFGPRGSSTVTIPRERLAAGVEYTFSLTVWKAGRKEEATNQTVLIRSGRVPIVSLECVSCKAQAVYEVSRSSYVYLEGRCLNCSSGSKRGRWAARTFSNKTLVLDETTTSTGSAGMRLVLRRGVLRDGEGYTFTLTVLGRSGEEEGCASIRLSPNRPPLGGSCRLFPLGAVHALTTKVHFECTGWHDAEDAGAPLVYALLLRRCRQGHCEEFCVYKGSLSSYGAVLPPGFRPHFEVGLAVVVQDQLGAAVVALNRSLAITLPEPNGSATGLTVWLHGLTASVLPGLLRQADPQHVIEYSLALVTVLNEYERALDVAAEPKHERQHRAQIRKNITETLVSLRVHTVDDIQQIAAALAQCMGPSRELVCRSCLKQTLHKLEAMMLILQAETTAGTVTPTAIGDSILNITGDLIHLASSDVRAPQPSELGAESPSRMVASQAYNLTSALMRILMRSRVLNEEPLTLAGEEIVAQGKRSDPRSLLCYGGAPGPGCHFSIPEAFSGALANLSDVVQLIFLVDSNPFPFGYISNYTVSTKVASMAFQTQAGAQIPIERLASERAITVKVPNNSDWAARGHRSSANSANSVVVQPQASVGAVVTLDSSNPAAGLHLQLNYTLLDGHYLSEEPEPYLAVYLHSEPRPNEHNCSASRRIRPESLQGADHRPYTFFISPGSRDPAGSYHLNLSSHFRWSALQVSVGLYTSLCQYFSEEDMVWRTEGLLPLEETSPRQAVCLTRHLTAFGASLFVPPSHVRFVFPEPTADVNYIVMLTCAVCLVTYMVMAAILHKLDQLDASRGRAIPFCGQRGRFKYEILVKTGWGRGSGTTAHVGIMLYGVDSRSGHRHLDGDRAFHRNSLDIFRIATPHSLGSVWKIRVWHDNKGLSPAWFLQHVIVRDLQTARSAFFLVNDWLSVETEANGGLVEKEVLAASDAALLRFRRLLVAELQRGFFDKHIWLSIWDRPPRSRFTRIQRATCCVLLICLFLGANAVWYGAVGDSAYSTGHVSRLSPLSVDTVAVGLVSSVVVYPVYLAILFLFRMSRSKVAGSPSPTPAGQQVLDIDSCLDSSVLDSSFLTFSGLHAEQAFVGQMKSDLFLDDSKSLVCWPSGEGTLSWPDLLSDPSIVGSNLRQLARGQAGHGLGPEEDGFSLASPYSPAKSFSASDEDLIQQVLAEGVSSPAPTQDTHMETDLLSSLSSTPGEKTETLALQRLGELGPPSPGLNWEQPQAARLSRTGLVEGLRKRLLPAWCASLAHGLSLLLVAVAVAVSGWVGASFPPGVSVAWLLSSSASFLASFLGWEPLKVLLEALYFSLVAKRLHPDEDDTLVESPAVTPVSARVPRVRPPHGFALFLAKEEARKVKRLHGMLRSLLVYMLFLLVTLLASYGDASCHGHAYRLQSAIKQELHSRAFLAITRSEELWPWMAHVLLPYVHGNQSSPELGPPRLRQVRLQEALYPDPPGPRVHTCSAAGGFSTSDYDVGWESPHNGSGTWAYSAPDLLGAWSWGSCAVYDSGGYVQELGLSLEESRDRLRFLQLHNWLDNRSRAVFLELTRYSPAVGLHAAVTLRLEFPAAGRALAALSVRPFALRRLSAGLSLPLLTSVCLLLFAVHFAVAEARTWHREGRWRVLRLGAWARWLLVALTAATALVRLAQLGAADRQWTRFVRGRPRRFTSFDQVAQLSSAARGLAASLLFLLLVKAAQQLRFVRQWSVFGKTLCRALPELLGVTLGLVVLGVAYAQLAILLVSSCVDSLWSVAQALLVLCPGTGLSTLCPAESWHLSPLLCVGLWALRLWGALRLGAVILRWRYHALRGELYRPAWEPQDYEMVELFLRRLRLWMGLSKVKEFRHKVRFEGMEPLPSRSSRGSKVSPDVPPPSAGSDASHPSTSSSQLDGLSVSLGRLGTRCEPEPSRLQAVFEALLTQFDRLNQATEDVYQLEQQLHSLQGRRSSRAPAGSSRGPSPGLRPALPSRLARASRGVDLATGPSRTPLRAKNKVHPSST
UniProt Q9UBS4, residues 23-358: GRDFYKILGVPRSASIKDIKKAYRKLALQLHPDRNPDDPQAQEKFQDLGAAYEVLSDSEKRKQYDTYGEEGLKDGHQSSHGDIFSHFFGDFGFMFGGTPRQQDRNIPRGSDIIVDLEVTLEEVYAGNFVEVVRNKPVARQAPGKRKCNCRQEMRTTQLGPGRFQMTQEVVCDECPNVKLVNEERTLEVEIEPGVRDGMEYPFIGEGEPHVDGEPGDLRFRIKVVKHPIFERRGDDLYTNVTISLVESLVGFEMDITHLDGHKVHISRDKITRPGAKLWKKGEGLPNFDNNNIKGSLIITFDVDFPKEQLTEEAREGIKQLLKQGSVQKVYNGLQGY

Target: FLAG-tagged polycystin-1 (PC1) (UniProt P98161)
Assay: affinity purification with mass spectrometry

With “DNAJB11 (endogenous, HEK 293T) (from UniProt Q9UBS4 23-358)” the binding was “binds”.
